Reference: the supplement of paper PMC10849652
The other results are listed elsewhere or left out.

Protein sequences, listed by entry. Tags and fused reporters are not part of them. Lines headed by an entry give the natural chain unless they say otherwise; changes in a name come on top.
UniProt Q9Y320, whole entry, looked up: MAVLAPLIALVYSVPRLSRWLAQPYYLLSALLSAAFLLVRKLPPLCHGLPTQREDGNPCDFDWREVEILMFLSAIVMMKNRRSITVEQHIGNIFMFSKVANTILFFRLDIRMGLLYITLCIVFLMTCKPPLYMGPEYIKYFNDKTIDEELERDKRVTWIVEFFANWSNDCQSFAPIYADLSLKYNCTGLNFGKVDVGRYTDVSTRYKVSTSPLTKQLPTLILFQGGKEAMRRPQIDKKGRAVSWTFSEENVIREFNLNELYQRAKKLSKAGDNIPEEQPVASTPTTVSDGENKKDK
UniProt Q9NQ34: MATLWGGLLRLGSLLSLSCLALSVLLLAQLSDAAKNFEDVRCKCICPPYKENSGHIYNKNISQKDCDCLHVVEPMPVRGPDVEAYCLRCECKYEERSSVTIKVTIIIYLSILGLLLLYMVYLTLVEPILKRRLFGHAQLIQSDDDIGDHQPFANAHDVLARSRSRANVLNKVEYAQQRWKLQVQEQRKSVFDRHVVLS
UniProt Q15628: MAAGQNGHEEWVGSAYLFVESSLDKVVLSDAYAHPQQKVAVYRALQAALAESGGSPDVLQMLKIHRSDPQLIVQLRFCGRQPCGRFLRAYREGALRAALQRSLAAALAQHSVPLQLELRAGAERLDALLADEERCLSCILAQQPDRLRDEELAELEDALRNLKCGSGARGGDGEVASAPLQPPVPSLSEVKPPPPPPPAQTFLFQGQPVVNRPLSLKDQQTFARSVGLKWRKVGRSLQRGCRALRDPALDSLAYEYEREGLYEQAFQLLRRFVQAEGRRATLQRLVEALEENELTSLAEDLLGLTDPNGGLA
UniProt P42167: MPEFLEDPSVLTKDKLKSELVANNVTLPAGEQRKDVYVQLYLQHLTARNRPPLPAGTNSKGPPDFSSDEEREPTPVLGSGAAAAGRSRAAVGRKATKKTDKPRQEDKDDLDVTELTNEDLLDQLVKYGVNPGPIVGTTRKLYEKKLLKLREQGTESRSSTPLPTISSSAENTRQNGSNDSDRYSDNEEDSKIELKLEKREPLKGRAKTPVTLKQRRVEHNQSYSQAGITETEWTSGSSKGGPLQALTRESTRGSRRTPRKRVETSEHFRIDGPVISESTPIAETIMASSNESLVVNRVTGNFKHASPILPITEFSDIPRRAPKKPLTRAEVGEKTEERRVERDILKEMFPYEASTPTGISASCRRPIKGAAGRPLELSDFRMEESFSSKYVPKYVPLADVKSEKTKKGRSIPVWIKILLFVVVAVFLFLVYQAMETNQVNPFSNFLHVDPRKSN
UniProt P09493, whole entry, looked up: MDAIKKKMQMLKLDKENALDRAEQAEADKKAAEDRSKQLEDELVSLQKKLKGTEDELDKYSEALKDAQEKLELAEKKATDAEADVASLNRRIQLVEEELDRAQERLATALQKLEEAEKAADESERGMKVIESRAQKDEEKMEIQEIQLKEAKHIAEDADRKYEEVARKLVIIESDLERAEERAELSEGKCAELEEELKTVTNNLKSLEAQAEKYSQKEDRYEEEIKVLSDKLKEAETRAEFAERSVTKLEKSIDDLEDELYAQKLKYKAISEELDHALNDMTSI
UniProt Q8N511: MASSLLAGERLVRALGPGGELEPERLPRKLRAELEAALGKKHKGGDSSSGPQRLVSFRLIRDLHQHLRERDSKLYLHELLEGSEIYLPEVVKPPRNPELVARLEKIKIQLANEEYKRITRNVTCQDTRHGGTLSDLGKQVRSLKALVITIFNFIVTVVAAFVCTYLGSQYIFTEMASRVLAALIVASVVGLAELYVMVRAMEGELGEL
UniProt Q9ULW0, whole entry, looked up: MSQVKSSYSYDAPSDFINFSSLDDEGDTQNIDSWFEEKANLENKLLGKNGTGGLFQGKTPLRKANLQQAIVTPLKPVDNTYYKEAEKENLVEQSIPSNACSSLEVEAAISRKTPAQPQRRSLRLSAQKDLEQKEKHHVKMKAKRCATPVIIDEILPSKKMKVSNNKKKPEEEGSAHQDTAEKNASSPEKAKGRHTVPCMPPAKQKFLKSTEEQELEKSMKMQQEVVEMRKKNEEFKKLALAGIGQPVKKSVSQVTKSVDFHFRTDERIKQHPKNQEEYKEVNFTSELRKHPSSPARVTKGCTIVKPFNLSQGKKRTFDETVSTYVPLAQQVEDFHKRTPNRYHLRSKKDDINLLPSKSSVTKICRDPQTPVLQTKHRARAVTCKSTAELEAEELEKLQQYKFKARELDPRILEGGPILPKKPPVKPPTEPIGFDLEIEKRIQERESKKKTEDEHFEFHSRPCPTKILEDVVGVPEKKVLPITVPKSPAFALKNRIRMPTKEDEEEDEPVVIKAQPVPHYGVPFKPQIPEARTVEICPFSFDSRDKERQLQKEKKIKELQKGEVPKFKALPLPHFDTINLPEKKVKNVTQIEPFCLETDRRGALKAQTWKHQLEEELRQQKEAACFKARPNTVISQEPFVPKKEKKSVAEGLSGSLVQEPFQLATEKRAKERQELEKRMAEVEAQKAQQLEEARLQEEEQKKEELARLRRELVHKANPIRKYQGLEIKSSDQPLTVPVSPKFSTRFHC
UniProt P62995: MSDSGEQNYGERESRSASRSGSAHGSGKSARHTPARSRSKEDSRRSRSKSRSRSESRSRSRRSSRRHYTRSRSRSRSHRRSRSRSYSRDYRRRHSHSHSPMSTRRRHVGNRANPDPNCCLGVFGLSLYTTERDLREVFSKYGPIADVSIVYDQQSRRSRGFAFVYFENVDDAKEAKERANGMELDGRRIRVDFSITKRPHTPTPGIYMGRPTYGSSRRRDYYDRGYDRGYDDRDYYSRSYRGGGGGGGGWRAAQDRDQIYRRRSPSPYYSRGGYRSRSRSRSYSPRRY
UniProt Q8NFQ8: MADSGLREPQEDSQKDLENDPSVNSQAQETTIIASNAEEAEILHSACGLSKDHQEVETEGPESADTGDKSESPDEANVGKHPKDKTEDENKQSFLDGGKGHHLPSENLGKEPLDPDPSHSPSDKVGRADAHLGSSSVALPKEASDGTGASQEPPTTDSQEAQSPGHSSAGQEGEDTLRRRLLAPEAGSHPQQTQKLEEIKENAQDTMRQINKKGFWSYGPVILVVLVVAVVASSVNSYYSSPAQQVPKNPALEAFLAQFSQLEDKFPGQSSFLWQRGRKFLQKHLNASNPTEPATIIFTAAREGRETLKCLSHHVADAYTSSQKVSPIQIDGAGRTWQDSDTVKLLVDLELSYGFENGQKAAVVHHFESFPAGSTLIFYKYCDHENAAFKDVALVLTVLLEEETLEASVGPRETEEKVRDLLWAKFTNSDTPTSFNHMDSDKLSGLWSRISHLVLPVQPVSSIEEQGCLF
UniProt O43399: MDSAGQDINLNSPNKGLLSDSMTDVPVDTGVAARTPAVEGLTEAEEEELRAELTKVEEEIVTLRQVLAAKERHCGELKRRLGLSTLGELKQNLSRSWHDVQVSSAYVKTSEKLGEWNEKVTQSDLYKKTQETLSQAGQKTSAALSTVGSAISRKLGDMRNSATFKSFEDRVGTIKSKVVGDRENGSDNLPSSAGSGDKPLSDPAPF
UniProt P63313: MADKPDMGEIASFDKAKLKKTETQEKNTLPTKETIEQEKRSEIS
UniProt P60174, whole entry, looked up: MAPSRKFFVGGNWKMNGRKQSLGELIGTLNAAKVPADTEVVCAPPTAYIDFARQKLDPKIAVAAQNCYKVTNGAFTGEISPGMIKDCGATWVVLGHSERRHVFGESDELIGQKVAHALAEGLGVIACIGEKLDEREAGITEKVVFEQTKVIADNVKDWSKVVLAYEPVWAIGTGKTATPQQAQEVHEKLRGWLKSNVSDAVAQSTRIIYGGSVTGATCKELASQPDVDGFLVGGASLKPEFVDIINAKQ
UniProt O14656: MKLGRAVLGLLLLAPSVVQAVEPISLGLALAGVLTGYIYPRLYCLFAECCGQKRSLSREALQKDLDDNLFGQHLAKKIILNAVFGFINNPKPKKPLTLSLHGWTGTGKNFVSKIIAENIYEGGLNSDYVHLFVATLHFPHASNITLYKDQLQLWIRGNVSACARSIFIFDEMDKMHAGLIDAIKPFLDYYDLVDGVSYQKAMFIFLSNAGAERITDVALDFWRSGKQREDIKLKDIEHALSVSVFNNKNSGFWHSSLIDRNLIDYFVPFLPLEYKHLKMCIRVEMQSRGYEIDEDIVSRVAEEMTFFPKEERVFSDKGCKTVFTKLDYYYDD
UniProt Q13595: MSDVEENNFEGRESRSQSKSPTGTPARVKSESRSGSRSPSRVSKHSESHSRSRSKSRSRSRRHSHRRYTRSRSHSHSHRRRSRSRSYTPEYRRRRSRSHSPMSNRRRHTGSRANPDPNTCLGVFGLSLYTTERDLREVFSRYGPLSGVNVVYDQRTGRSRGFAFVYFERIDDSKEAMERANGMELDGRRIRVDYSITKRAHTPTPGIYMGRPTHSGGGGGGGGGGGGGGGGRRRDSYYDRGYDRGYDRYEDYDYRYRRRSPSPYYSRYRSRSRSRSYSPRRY
UniProt P06753, whole entry, looked up: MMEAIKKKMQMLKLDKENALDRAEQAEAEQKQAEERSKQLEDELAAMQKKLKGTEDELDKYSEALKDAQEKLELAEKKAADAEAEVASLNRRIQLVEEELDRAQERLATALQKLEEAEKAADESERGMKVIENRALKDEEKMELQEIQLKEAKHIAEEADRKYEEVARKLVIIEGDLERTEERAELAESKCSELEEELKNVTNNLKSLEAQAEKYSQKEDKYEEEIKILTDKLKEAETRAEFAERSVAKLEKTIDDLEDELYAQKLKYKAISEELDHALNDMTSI
UniProt A0PJW6: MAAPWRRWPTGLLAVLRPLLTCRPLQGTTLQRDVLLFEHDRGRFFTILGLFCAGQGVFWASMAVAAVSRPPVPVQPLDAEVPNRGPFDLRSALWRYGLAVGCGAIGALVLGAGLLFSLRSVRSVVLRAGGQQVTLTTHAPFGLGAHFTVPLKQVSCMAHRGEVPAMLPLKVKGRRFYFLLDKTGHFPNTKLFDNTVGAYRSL
UniProt Q5JU69: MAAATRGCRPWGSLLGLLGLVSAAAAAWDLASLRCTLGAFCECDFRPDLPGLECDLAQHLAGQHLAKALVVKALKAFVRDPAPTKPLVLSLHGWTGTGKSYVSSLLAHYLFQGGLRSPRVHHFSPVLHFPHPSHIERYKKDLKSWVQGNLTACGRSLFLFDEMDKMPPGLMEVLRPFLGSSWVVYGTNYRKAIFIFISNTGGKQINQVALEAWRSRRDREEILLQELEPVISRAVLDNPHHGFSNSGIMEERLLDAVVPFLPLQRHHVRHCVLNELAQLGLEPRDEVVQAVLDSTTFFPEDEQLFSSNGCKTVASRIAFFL
UniProt Q6ZT21: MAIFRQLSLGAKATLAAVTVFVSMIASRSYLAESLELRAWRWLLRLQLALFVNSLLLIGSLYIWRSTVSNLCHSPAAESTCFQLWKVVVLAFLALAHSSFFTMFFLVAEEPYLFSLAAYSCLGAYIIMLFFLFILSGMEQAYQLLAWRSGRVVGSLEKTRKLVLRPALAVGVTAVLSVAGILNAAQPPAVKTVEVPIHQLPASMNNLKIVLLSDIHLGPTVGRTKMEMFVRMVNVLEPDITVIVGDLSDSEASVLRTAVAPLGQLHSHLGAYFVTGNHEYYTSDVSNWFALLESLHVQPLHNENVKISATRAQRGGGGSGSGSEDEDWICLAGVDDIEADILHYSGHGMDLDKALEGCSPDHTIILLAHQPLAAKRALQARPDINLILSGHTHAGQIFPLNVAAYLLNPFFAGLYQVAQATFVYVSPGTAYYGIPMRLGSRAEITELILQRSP
UniProt Q8N4H5: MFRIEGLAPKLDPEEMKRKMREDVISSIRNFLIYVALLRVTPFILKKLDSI
UniProt Q6PI78: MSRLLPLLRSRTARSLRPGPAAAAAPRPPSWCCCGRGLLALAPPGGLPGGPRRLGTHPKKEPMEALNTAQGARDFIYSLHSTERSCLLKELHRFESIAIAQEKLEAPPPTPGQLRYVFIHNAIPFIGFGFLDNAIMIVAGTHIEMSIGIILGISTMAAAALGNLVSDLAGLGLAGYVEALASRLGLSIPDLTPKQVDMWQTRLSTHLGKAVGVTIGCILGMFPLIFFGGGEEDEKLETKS
UniProt Q53FA7: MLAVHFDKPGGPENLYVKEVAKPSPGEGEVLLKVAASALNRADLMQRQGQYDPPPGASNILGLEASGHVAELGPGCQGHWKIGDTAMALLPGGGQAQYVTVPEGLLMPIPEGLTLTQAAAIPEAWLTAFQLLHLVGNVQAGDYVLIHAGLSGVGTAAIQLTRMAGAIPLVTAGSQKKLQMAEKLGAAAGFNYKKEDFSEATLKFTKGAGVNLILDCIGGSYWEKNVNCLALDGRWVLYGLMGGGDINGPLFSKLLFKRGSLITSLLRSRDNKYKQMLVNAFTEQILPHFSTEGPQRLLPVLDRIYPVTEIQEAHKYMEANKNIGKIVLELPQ
UniProt Q8IY95: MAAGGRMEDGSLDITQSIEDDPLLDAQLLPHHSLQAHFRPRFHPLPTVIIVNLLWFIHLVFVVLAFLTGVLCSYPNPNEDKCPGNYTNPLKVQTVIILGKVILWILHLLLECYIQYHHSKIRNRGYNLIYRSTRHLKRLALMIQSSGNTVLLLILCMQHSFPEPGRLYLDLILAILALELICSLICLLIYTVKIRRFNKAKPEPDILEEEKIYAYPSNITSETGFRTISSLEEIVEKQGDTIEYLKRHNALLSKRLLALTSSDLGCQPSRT

What was measured:
Assay in all cases: log2 fold change, soluble protein after heating vs DMSO (PISA); higher = thermal stabilisation; K562 lysate, 10 uM; active = over 0.2 and 3.5 SD of the protein, either way, in both replicates (recomputed)
erlotinib = compound: C#Cc1cccc(Nc2ncnc3cc(OCCOC)c(OCCOC)cc23)c1 [erlotinib]
Outline: (§1)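 Pellets of K562 cells were dounce-homogenised in PBS pH 7.4 with 1 mM MgCl2, and the crude extract was held at 1 mg/mL protein for a 30 min treatment with 10 μM compound. Aliquots were heated for 3 min over 48°C-58°C and pooled before NP-40 was added to 0.5% at 4°C. The supernatant from 21,000xg for 90 min was quantified by TMTpro 16plex LC-MS/MS with channel sums equalised. Values are reported from duplicates as log-two fold change in thermal stability relative to solvent controls.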

[1] = compound: C/C(=N\NC(=O)C1=CC(=CC=C1)S(=O)(=O)N2CCOCC2)/C3=C(C=CC(=C3)Cl)O
Outline: as §1

[2] = compound: C1=CC(=CC=C1C2=NC3=C(N2)C=C(C=C3)C(=O)N)OC4=CC=C(C=C4)Cl
Outline: as §1

[3] = compound: C1=CC2=C(C=CC(=C2)/C=C\3/C(=O)NC(=NCC4=CC=CS4)S3)N=C1
Outline: as §1

[4] = compound: C1=CC2=NC=CN=C2C=C1/C=C/3\C(=O)NC(=O)S3
Outline: as §1

[5] = compound: C1=CC=C(C=C1)C2=NC(=C(N2)C3=CC=NC=C3)C4=CC(=C(C=C4)Cl)O
Outline: as §1

[6] = compound: C1=CC=C2C(=C1)C3=NNC4=CC=CC(=C43)C2=O
Outline: as §1

[7] = compound: C1CCN(C1)C(=O)NC2=CC=CC(=C2)NC3=NC=C(C(=N3)NCCC4=CN=CN4)Br
Outline: as §1

[8] = compound: C1CN(CCC1(CC2=CC=C(C=C2)Cl)N)C3=NC=NC4=C3C=CN4
Outline: as §1

IRAK-1-4 Inhibitor I = compound: C1COCCN1CCN2C3=CC=CC=C3N=C2NC(=O)C4=CC(=CC=C4)[N+](=O)[O-] [IRAK-1-4 Inhibitor I]
Outline: as §1

Measured: log2 fold change

TMX2 (UniProt Q9Y320)
inactive: erlotinib -0.013 | [1] 0.001 | [2] -0.015 | [3] 0.041 | [4] 0.03 | [5] -0.037 | [6] 0.01 | [7] -0.026 | [8] -0.012 | IRAK-1-4 Inhibitor I 0.036

TPM1 (UniProt H7BYY1)
inactive: erlotinib -0.034 | [1] -0.004 | [2] -0.057 | [3] 0.026 | [4] -0.008 | [5] 0.091 | [6] -0.041 | [7] 0.012 | [8] -0.02 | IRAK-1-4 Inhibitor I -0.071

TOPBP1 (UniProt Q92547)
inactive: erlotinib 0.004 | [1] -0.056 | [2] -0.034 | [3] 0.018 | [4] 0.002 | [5] 0.003 | [6] -0.009 | [7] -0.134 | [8] 0.072 | IRAK-1-4 Inhibitor I -0.006

TMEM9B (UniProt Q9NQ34)
inactive: erlotinib -0.119 | [1] -0.031 | [2] -0.159 | [3] -0.057 | [4] 0.025 | [5] -0.021 | [6] -0.088 | [7] -0.048 | [8] 0 | IRAK-1-4 Inhibitor I 0.103

TRADD (UniProt Q15628)
active: [1] 0.258
inactive: erlotinib 0.053 | [2] 0.03 | [3] -0.224 | [4] 0.009 | [5] -0.013 | [6] 0.251 | [7] 0.029 | [8] 0.076 | IRAK-1-4 Inhibitor I 0.033

TMPO (UniProt P42167)
inactive: erlotinib -0.016 | [1] 0.021 | [2] -0.021 | [3] -0.027 | [4] 0.014 | [5] -0.029 | [6] -0.073 | [7] -0.019 | [8] -0.032 | IRAK-1-4 Inhibitor I -0.002

TPM1 isoform 4 (UniProt P09493)
inactive: erlotinib -0.126 | [1] -0.004 | [2] 0.005 | [3] 0.018 | [4] 0.114 | [5] -0.026 | [6] -0.015 | [7] 0.014 | [8] -0.052 | IRAK-1-4 Inhibitor I -0.009

TMEM199 (UniProt Q8N511)
inactive: erlotinib 0.002 | [1] -0.03 | [2] -0.034 | [3] 0.032 | [4] 0.018 | [5] -0.013 | [6] -0.087 | [7] -0.065 | [8] 0.027 | IRAK-1-4 Inhibitor I -0.033

TPX2 (UniProt Q9ULW0)
inactive: erlotinib -0.014 | [1] -0.008 | [2] 0.032 | [3] -0.022 | [4] -0.013 | [5] 0.019 | [6] 0.001 | [7] -0.005 | [8] -0.026 | IRAK-1-4 Inhibitor I 0.006

TRA2B (UniProt P62995)
inactive: erlotinib -0.019 | [1] -0.149 | [2] 0.011 | [3] -0.036 | [4] -0.026 | [5] -0.054 | [6] -0.076 | [7] 0.03 | [8] -0.032 | IRAK-1-4 Inhibitor I 0.029

TOR1AIP2 (UniProt Q8NFQ8)
inactive: erlotinib -0.009 | [1] 0.029 | [2] -0.022 | [3] -0.009 | [4] -0.02 | [5] -0.018 | [6] -0.038 | [7] -0.01 | [8] 0.061 | IRAK-1-4 Inhibitor I -0.005

TPD52L2 isoform 7 (UniProt O43399)
inactive: erlotinib -0.044 | [1] -0.028 | [2] 0.085 | [3] 0.015 | [4] 0 | [5] 0.017 | [6] 0.036 | [7] 0.029 | [8] -0.004 | IRAK-1-4 Inhibitor I -0.031

TMSB10 (UniProt P63313)
inactive: erlotinib 0.076 | [1] 0.145 | [2] -0.064 | [3] 0.01 | [4] 0.061 | [5] -0.035 | [6] 0.054 | [7] -0.027 | [8] 0.093 | IRAK-1-4 Inhibitor I -0.079

2 successive entries already listed:
TOR1AIP2 (UniProt Q8NFQ8)
inactive: erlotinib -0.009 | [1] 0.029 | [2] -0.022 | [3] -0.009 | [4] -0.02 | [5] -0.018 | [6] -0.038 | [7] -0.01 | [8] 0.061 | IRAK-1-4 Inhibitor I -0.005

TPD52L2 isoform 7 (UniProt O43399)
inactive: erlotinib -0.044 | [1] -0.028 | [2] 0.085 | [3] 0.015 | [4] 0 | [5] 0.017 | [6] 0.036 | [7] 0.029 | [8] -0.004 | IRAK-1-4 Inhibitor I -0.031

(listing goes on)

TPI1 (UniProt P60174)
inactive: erlotinib -0.005 | [1] 0.038 | [2] 0.022 | [3] 0.012 | [4] -0.019 | [5] 0.003 | [6] 0.072 | [7] -0.024 | [8] 0.002 | IRAK-1-4 Inhibitor I 0.049

TOR1A (UniProt O14656)
inactive: erlotinib -0.038 | [1] -0.044 | [2] 0.027 | [3] -0.014 | [4] 0.003 | [5] -0.033 | [6] -0.022 | [7] 0.02 | [8] -0.032 | IRAK-1-4 Inhibitor I 0.056

TRA2A (UniProt Q13595)
inactive: erlotinib -0.164 | [1] -0.261 | [2] -0.092 | [3] -0.03 | [4] -0.137 | [5] 0.038 | [6] -0.024 | [7] 0.083 | [8] -0.234 | IRAK-1-4 Inhibitor I -0.102

TMPO (UniProt P42166)
inactive: erlotinib 0.026 | [1] -0.038 | [2] 0.012 | [3] -0.097 | [4] -0.03 | [5] -0.024 | [6] -0.026 | [7] -0.004 | [8] 0.005 | IRAK-1-4 Inhibitor I 0.008

TMEM70 (UniProt Q9BUB7)
inactive: erlotinib -0.018 | [1] -0.003 | [2] -0.106 | [3] 0.03 | [4] 0.038 | [5] -0.073 | [6] 0.011 | [7] 0.006 | [8] -0.028 | IRAK-1-4 Inhibitor I 0.086

TPM3 (UniProt P06753)
inactive: erlotinib -0.022 | [1] 0.027 | [2] -0.026 | [3] -0.042 | [4] -0.012 | [5] 0.014 | [6] 0.068 | [7] 0.035 | [8] -0.021 | IRAK-1-4 Inhibitor I -0.019

TOE1 (UniProt Q96GM8)
inactive: erlotinib -0.035 | [1] -0.064 | [2] 0.006 | [3] 0.036 | [4] 0.054 | [5] -0.021 | [6] -0.024 | [7] 0 | [8] -0.035 | IRAK-1-4 Inhibitor I -0.021

TMEM223 (UniProt A0PJW6)
inactive: erlotinib -0.282 | [1] 0.136 | [2] -0.369 | [3] -0.108 | [4] -0.052 | [5] 0.016 | [6] 0.118 | [7] 0.044 | [8] -0.026 | IRAK-1-4 Inhibitor I -0.065

TOR2A (UniProt Q5JU69)
inactive: erlotinib 0.007 | [1] -0.009 | [2] -0.003 | [3] 0.06 | [4] -0.051 | [5] 0.037 | [6] -0.055 | [7] 0.062 | [8] 0.007 | IRAK-1-4 Inhibitor I 0.035

TPM3 isoform 2 (UniProt P06753)
inactive: erlotinib -0.075 | [1] -0.007 | [2] -0.065 | [3] -0.008 | [4] 0.003 | [5] 0.004 | [6] 0.038 | [7] 0.039 | [8] -0.074 | IRAK-1-4 Inhibitor I -0.042

TOP2A isoform 4 (UniProt P11388)
inactive: erlotinib -0.004 | [1] -0.049 | [2] 0.004 | [3] 0.043 | [4] -0.008 | [5] 0.007 | [6] -0.011 | [7] 0.003 | [8] -0.018 | IRAK-1-4 Inhibitor I -0.033

TMPPE (UniProt Q6ZT21)
inactive: erlotinib -0.077 | [1] 0.006 | [2] 0.004 | [3] 0.031 | [4] 0.05 | [5] -0.023 | [6] -0.011 | [7] 0 | [8] 0.028 | IRAK-1-4 Inhibitor I 0.016

TOMM5 (UniProt Q8N4H5)
inactive: erlotinib -0.004 | [1] 0.122 | [2] 0.013 | [3] 0.112 | [4] 0.039 | [5] -0.16 | [6] 0.035 | [7] 0.221 | [8] 0.084 | IRAK-1-4 Inhibitor I -0.025

TMEM65 (UniProt Q6PI78)
inactive: erlotinib -0.091 | [1] -0.073 | [2] -0.028 | [3] -0.081 | [4] 0.029 | [5] 0.011 | [6] 0.103 | [7] -0.01 | [8] 0.103 | IRAK-1-4 Inhibitor I 0.13

TP53I3 (UniProt Q53FA7)
inactive: erlotinib -0.069 | [1] 0.009 | [2] -0.016 | [3] -0.003 | [4] 0.018 | [5] 0.004 | [6] 0.039 | [7] 0.053 | [8] 0.039 | IRAK-1-4 Inhibitor I -0.019

TMEM192 (UniProt Q8IY95)
inactive: erlotinib -0.008 | [1] 0.004 | [2] 0.039 | [3] 0.012 | [4] -0.036 | [5] 0.009 | [6] 0.004 | [7] 0.082 | [8] -0.012 | IRAK-1-4 Inhibitor I 0.026

TP53BP2 isoform 3 (UniProt Q13625)
inactive: erlotinib 0.014 | [1] 0.021 | [2] 0.019 | [3] 0.024 | [4] -0.101 | [5] 0.005 | [6] -0.022 | [7] -0.039 | [8] 0.039 | IRAK-1-4 Inhibitor I 0.02
